This is one part of the list.
Columns and labels:
Test in all cases: glycan array binding signal (z-score within array); higher = stronger binding
Conditions in all cases: glycan notation: IUPAC condensed, linker removed
[1] = target: Gal(b1-3)GalNAc(a1-3)[Fuc(a1-2)]Gal(b1-4)GlcNAc
Method in brief: (§1)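 Arrays were curated from the Consortium for Functional Glycomics database, 3228 in total, and kept only where the protein sequence was available. Binding is expressed as a within-array Z-score. This score was averaged across arrays of the same protein sequence at different concentrations or buffers and across linkers, and negative values can be read as non-binding.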

Gal(b1-3)GalNAc(b1-3)Gal = target: Gal(b1-3)GalNAc(b1-3)Gal
Method in brief: as §1

[2] = target: Gal(b1-3)GalNAc(b1-3)Gal(a1-4)Gal(b1-4)Glc
Method in brief: as §1

[3] = target: Gal(b1-3)GalNAc(b1-4)Gal(b1-4)Glc
Method in brief: as §1

[4] = target: Gal(b1-3)GalNAc(b1-4)[Neu5Ac(a2-3)]Gal(b1-4)Glc
Method in brief: as §1

Gal(b1-3)GlcNAc = target: Gal(b1-3)GlcNAc
Method in brief: as §1

[5] = target: Gal(b1-3)GlcNAc(a1-3)Gal(b1-4)GlcNAc
Method in brief: as §1

[6] = target: Gal(b1-3)GlcNAc(a1-6)Gal(b1-4)GlcNAc
Method in brief: as §1

Gal(b1-3)GlcNAc(b1-2)Man = target: Gal(b1-3)GlcNAc(b1-2)Man
Method in brief: as §1

[7] = target: Gal(b1-3)GlcNAc(b1-2)Man(a1-3)[Gal(b1-3)GlcNAc(b1-2)Man(a1-6)]Man(b1-4)GlcNAc(b1-4)GlcNAc
Method in brief: as §1

[8] = target: Gal(b1-3)GlcNAc(b1-2)Man(a1-3)[Gal(b1-3)GlcNAc(b1-2)Man(a1-6)]Man(b1-4)GlcNAc(b1-4)[Fuc(a1-6)]GlcNAc
Method in brief: as §1

[9] = target: Gal(b1-3)GlcNAc(b1-2)Man(a1-3)[GlcNAc(b1-4)][Gal(b1-3)GlcNAc(b1-2)Man(a1-6)]Man(b1-4)GlcNAc(b1-4)GlcNAc
Method in brief: as §1

[10] = target: Gal(b1-3)GlcNAc(b1-2)[Gal(b1-3)GlcNAc(b1-6)]Man(a1-6)[Gal(b1-3)GlcNAc(b1-2)Man(a1-3)]Man(b1-4)GlcNAc(b1-4)GlcNAc
Method in brief: as §1

[11] = target: Gal(b1-3)GlcNAc(b1-3)Gal(b1-3)GlcNAc
Method in brief: as §1

[12] = target: Gal(b1-3)GlcNAc(b1-3)Gal(b1-4)Glc
Method in brief: as §1

[13] = target: Gal(b1-3)GlcNAc(b1-3)Gal(b1-4)GlcNAc
Method in brief: as §1

[14] = target: Gal(b1-3)GlcNAc(b1-3)Gal(b1-4)GlcNAc(b1-2)Man(a1-3)[Gal(b1-3)GlcNAc(b1-3)Gal(b1-4)GlcNAc(b1-2)Man(a1-6)]Man(b1-4)GlcNAc(b1-4)GlcNAc
Method in brief: as §1

[15] = target: Gal(b1-3)GlcNAc(b1-3)Gal(b1-4)GlcNAc(b1-2)[Gal(b1-3)GlcNAc(b1-3)Gal(b1-4)GlcNAc(b1-6)]Man(a1-6)[Gal(b1-3)GlcNAc(b1-3)Gal(b1-4)GlcNAc(b1-2)Man(a1-3)]Man(b1-4)GlcNAc(b1-4)[Fuc(a1-6)]GlcNAc
Method in brief: as §1

[16] = target: Gal(b1-3)GlcNAc(b1-3)Gal(b1-4)GlcNAc(b1-3)Gal(b1-4)GlcNAc(b1-2)[Gal(b1-3)GlcNAc(b1-3)Gal(b1-4)GlcNAc(b1-3)Gal(b1-4)GlcNAc(b1-6)]Man(a1-6)[Gal(b1-3)GlcNAc(b1-3)Gal(b1-4)GlcNAc(b1-3)Gal(b1-4)GlcNAc(b1-2)Man(a1-3)]Man(b1-4)GlcNAc(b1-4)[Fuc(a1-6)]GlcNAc
Method in brief: as §1

[17] = target: Gal(b1-3)GlcNAc(b1-3)Gal(b1-4)GlcNAc(b1-6)[Gal(b1-3)GlcNAc(b1-3)]Gal(b1-4)Glc
Method in brief: as §1

[18] = target: Gal(b1-3)GlcNAc(b1-3)Gal(b1-4)[Fuc(a1-3)]GlcNAc
Method in brief: as §1

[19] = target: Gal(b1-3)GlcNAc(b1-3)Gal(b1-4)[Fuc(a1-3)]GlcNAc(b1-6)[Gal(b1-3)GlcNAc(b1-3)]Gal(b1-4)Glc
Method in brief: as §1

[20] = target: Gal(b1-3)GlcNAc(b1-3)GalNAc
Method in brief: as §1

[21] = target: Gal(b1-3)GlcNAc(b1-6)Gal(b1-4)GlcNAc
Method in brief: as §1

[22] = target: Gal(b1-3)GlcNAc(b1-6)GalNAc
Method in brief: as §1

[23] = target: Gal(b1-3)GlcNAc(b1-6)[Gal(b1-3)]GalNAc
Method in brief: as §1

Gal(b1-3)GlcNAc6S = target: Gal(b1-3)GlcNAc6S
Method in brief: as §1

[24] = target: Gal(b1-3)[Fuc(a1-4)]GlcNAc
Method in brief: as §1

[25] = target: Gal(b1-3)[Fuc(a1-4)]GlcNAc(b1-2)Man
Method in brief: as §1

[26] = target: Gal(b1-3)[Fuc(a1-4)]GlcNAc(b1-2)Man(a1-3)[Gal(b1-3)[Fuc(a1-4)]GlcNAc(b1-2)Man(a1-6)]Man(b1-4)GlcNAc(b1-4)GlcNAc
Method in brief: as §1

[27] = target: Gal(b1-3)[Fuc(a1-4)]GlcNAc(b1-2)Man(a1-3)[Gal(b1-3)[Fuc(a1-4)]GlcNAc(b1-2)Man(a1-6)]Man(b1-4)GlcNAc(b1-4)[Fuc(a1-6)]GlcNAc
Method in brief: as §1

[28] = target: Gal(b1-3)[Fuc(a1-4)]GlcNAc(b1-3)Gal(b1-3)[Fuc(a1-4)]GlcNAc
Method in brief: as §1

[29] = target: Gal(b1-3)[Fuc(a1-4)]GlcNAc(b1-3)Gal(b1-4)GlcNAc
Method in brief: as §1

[30] = target: Gal(b1-3)[Fuc(a1-4)]GlcNAc(b1-3)Gal(b1-4)[Fuc(a1-3)]GlcNAc
Method in brief: as §1

[31] = target: Gal(b1-3)[Fuc(a1-4)]GlcNAc(b1-6)GalNAc
Method in brief: as §1

[32] = target: Gal(b1-3)[GlcNAc(b1-6)]GalNAc
Method in brief: as §1

[33] = target: Gal(b1-3)[Neu5Ac(a2-6)]GalNAc
Method in brief: as §1

[34] = target: Gal(b1-3)[Neu5Ac(a2-6)]GlcNAc(b1-4)Gal(b1-4)Glc
Method in brief: as §1

[35] = target: Gal(b1-3)[Neu5Ac(a2-6)]GlcNAc(b1-6)Gal(b1-4)Glc
Method in brief: as §1

[36] = target: Gal(b1-3)[Neu5Ac(b2-6)]GalNAc
Method in brief: as §1

Gal(b1-4)Gal = target: Gal(b1-4)Gal
Method in brief: as §1

[37] = target: Gal(b1-4)GalNAc(a1-3)[Fuc(a1-2)]Gal(b1-4)GlcNAc
Method in brief: as §1

[38] = target: Gal(b1-4)GalNAc(b1-3)[Fuc(a1-2)]Gal(b1-4)GlcNAc
Method in brief: as §1

Gal(b1-4)Glc = target: Gal(b1-4)Glc
Method in brief: as §1

Gal(b1-4)Glc6S = target: Gal(b1-4)Glc6S
Method in brief: as §1

B1: GST Gap3 (Streptococcus parasanguinis) (protein)
chain: MTKQLISEIYWNEIRKGENYLYGSQIKFQEDLVNFYNPQLASGKPIVTFKSRTNYQGDRHSPDLPILIQGNRYLLEYQIDAVPANSFFLQLDFFNRQAEQIESIVLRNSGESFIFPKDTFTYTLTLMSAGCQSVTYQKFMIYDINDEEKKNHIVENRYLRELLPKDLDLVKNLIEYI
- glycan array binding signal (z-score) [1]: -0.52
- glycan array binding signal (z-score) (Gal(b1-3)GalNAc(b1-3)Gal): -0.598
- glycan array binding signal (z-score) [2]: -0.402
- glycan array binding signal (z-score) [3]: -0.084
- glycan array binding signal (z-score) [4]: 0.142
- glycan array binding signal (z-score) (Gal(b1-3)GlcNAc): -0.164
- glycan array binding signal (z-score) [5]: 1.03
- glycan array binding signal (z-score) [6]: -0.657
- glycan array binding signal (z-score) (Gal(b1-3)GlcNAc(b1-2)Man): -0.116
- glycan array binding signal (z-score) [7]: 1.86
- glycan array binding signal (z-score) [8]: -0.196
- glycan array binding signal (z-score) [9]: 1.04
- glycan array binding signal (z-score) [10]: 0.783
- glycan array binding signal (z-score) [11]: -0.355
- glycan array binding signal (z-score) [12]: -0.072
- glycan array binding signal (z-score) [13]: -0.056
- glycan array binding signal (z-score) [14]: 0.821
- glycan array binding signal (z-score) [15]: 1.04
- glycan array binding signal (z-score) [16]: 4.03
- glycan array binding signal (z-score) [17]: 0.052
- glycan array binding signal (z-score) [18]: 0.626
- glycan array binding signal (z-score) [19]: 0.099
- glycan array binding signal (z-score) [20]: -0.691
- glycan array binding signal (z-score) [21]: 0.897
- glycan array binding signal (z-score) [22]: 0.002
- glycan array binding signal (z-score) [23]: 0.84
- glycan array binding signal (z-score) (Gal(b1-3)GlcNAc6S): 0.203
- glycan array binding signal (z-score) [24]: -0.27
- glycan array binding signal (z-score) [25]: 0.489
- glycan array binding signal (z-score) [26]: 3.61
- glycan array binding signal (z-score) [27]: 0.928
- glycan array binding signal (z-score) [28]: -0.009
- glycan array binding signal (z-score) [29]: -0.289
- glycan array binding signal (z-score) [30]: -0.2
- glycan array binding signal (z-score) [31]: 0.456
- glycan array binding signal (z-score) [32]: 0.03
- glycan array binding signal (z-score) [33]: 0.684
- glycan array binding signal (z-score) [34]: 0.604
- glycan array binding signal (z-score) [35]: -0.162
- glycan array binding signal (z-score) [36]: 0.007
- glycan array binding signal (z-score) (Gal(b1-4)Gal): -0.247
- glycan array binding signal (z-score) [37]: 0.503
- glycan array binding signal (z-score) [38]: 0.316
- glycan array binding signal (z-score) (Gal(b1-4)Glc): -0.306
- glycan array binding signal (z-score) (Gal(b1-4)Glc6S): 0.242

— the supplement of paper PMC8728848
